The series concerns the target T1, His-CalA (Nostoc sp. PCC 7120) (UniProt A0ACD7RPR5).
T1 sequence (looked up, limits assumed): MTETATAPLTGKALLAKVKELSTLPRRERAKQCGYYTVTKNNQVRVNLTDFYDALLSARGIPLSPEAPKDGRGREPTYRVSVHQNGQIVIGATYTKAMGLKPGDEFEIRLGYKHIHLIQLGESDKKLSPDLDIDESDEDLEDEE
Description: EMSA. Conditions: EMSA: 100 ng DNA per 20 ul, 0-45 ng His-CalA, room temperature 1 h, 8% native PAGE, recombinant protein, protein details: His, probe letters rebuilt from the primers and the genome. Background: Mobility shift assays separate free from complexed probe on a gel.

The mark [1] stands for this setting: 0-45 ng protein, 100 ng DNA per 20 ul, label: none (thiazole orange stain).

The exact form of at least one protein or probe is not confirmed. Negatives hold for the conditions tested. Tags and fusion partners may be left off the protein sequences shown.

As to “CGGTCTTCATCCAACCAATCTCTGAAGTCATCATAAGTTTGGATTTGTTCGTAGCGTTCTAATGAACAACCTAACCACACTGGTTCTAACCAATTGGTGCGGAAATATTCTAGAATCGCCCAAGCGCGAGTAATGTCTGTTAAAGTGGGGGCGCACATCACGCCACCAGGTACCATGTAGCTAGAATGAGGCCATTGTCCGCCCAACAGTGCATAAATTTCTACGGGTTTAGCAGAAATTGTTATGCCTAGTTCGTAAGATTTGCCAGTGAAGGCGGCAAAGCGTCTAACAGCTTCCTCATAATGGCG (double strand) [C1 (hupL fragment)]”, the binding result under setting [1] is “no binding”.

For the sequence “TTACGCATCTCATCACGGGCCATACCGATTTACGCAGGCTTCGAGTCCTTTAGGCGGAATTCCCCTTTTGTCTGAAACTAGAGGCTAGGGATTAATGATGCTAGGGACTAGGAAAATTTTTCCCAATACCTAATACTTAATCCTCAATCCCCTAAATTGAGTGAATTAATTTTTTTACTATAAAACACTCTATTTCTAAAATTCTAGGGGGAAATTGCCAATATTAATGTCAGCTTTAAACACCTTACATTTTGATAAGGTGTTCTGTATCATGACCTGACACAACGCAGTTCTTCTATATTGAATTGATAACATCTTATATATTTAAGACCTAACTTTGTTATCAAAATATAACTATTTGCTTTGAACTTAAAAATAAATTTATTTACTATTTACTTTTTTTGGCTAGTGCTGATATTTCTTAACGTACAAGACTTCACCTTTAAAATCTTAGCCCATTTATATAGAAAAGTTGAGATTACAACTCTCTCAAAATGATTTAAAACAGCTATCTAAAATCAGTGTGCTTAGTTTGTTATTCAAGCTTTTGTGAAAAATTATGTTCTTGATACAACCTTGTAAGCAATCTTAAGTAGATTTAAATTATTAGCAATGATTAATTTTTATTTAACAAAAGATAATTCACTAGAAAATCCACTAATATTAATGAATAAATATTGATAAATACGTGAGACTCTACAAGCATTATTTACTAATTCACGTATGGCAAACAATACAAAAACACCTAGCCC (double strand) [PhupS/Npun_R0367, EMSA]”, the binding result is on record as “binds”.

Turning to “TTCTAAAATTCTAGGGGGAAATTGCCAATATTAATGTCAGCTTTAAACACCTTACATTTTGATAAGGTGTTCTGTATCATGACCTGACACAACGCAGTTCTTCTATATTGAATTGATAACATCTTATATATTTAAGACCTAACTTTGTTATCAAAATATAACTATTTGCTTTGAACTTAAAAATAAATTTATTTACTATTTACTTTTTTTGGCTAGTGCTGATATTTCTTAACGTACAAGACTTCACCTTTAAAATCTTAGCCCATTTATATAGAAAAGTTGAGATTACAACTCTCTCAAAATGATTTAAAACAGCTATCTAAAATCAGTGTGCTTAGTTTGTTATTCAAGCTTTTGTGAAAAATTATGTTCTTGATACAACCTTGTAAGCAATCTTAAGTAGATTTAAATTATTAGCAATGATTAATTTTTATTTAACAAAAGATAATTCACTAGAAAATCCACTAATATTAATGAATAAATATTGATAAATACGTGAGACTCTACAAGCATTATTTACTAATTCACGTATGGCAAACAATACAAAAACACCTAGCCC (double strand) [PhupS]”, the binding result under setting [1] was “binds”.

These data come from PMC3126725.
